At least one structure is not confirmed: it was looked up by name or label, or the drawing left a doubt.
Columns and labels:
[1] = system: GBM-10 cells isolated from untreated xenografts (GBM-10 CTL (TMZs)); experiment: Limiting dilution assay, glioblastoma stem cell survival; format: cell-based, human; details: GBM-10 cells from untreated mice, 15 days
GBM-10 cells = experiment: Glioblastoma xenograft mouse model treated with TMZ; format: in vivo, NSG mice; details: TMZ 0.05 mg/mouse i.p. on Day 12, 22 and 32

Which “glioblastoma stem cell (GSC) survival” value [1] does the source give for `Cn1nnc2c(C(N)=O)ncn2c1=O` [temozolomide] here?
Its value is “decreased the stem cell survival”.

And the “glioblastoma cancer stem cells frequency in the tumor xenograft” value (GBM-10 cells)?
Its value is “increased”.

And the “O-acetyl-GD2 expression level after TMZ chemotherapy” value (GBM-10 cells; compared to cells from untreated mice)?
The value was “O-acetyl GD2 expression remains”.

— US11697689B2, “Use of antibody against O-acetylated GD2 ganglioside to improve the therapeutic potential of drugs” (OGD2 PHARMA, priority 2016, dated 2023)
